Results on one sequence are retold here after paper PMC4698393.

For at least one entry, the source does not settle the construct or the ends of the probe. For some of these results: A negative result means that nothing was seen under these conditions.

In series [1] the test system is GST-Nrf2 + His-MafG. Briefly: competition with a labelled probe. The following applies: excess cold HepcARE diminished binding to labeled HepcARE; EMSA binding buffer as previously described (ref 21; composition, salt and pH not given); Nrf2/MafG preincubated 30 min at room temperature; recombinant protein; protein details: GST (N-term, pGEX5x-1),His.
Series [2] deals with GST-Nrf2 + His-MafG. Briefly: EMSA. The following applies: dose-dependent increase with GST-Nrf2; EMSA binding buffer as previously described (ref 21; composition, salt and pH not given); Nrf2/MafG preincubated 30 min at room temperature; recombinant protein; protein details: GST (N-term, pGEX5x-1),His. A general note: A gel shift assay detects complexes by their altered migration in electrophoresis.

The next series concerns His-MafG. Briefly: EMSA. As to conditions: MafG alone (homodimer); EMSA binding buffer as previously described (ref 21; composition, salt and pH not given); Nrf2/MafG preincubated 30 min at room temperature; recombinant protein; protein details: His.
A further series concerns GST-Nrf2. Briefly: EMSA. As to conditions: Nrf2 alone; EMSA binding buffer as previously described (ref 21; composition, salt and pH not given); Nrf2/MafG preincubated 30 min at room temperature; recombinant protein; protein details: GST (N-term, pGEX5x-1).

Take “CTAGCGAATTCAACATCCCCGGGCTCTGGTGACTTGGCTGACACTGC / TCGAGCAGTGTCAGCCAAGTCACCAGAGCCCGGGGATGTTGAATTCG [HepcARE]”: the binding result is given as “binds” in the series with GST-Nrf2 + His-MafG [1], “binds” in the series on GST-Nrf2 + His-MafG [2], “binds” in the series with His-MafG and “no binding” in the series with GST-Nrf2.
